Data taken from PubChem BioAssay AID2685 (National Center for Advancing Translational Sciences (NCATS), 2010).
This is one part of the list. The main result of the screen is listed elsewhere. These columns were measured beside it and carry no call. Most of these compounds were active or inconclusive in the main read-out, so they are no random draw. Words in brackets tell the shape of the fitted curve; partial curves, single points and poor fits give uncertain potencies.

Test: qHTS Assay for Lipid Storage Modulators in Drosophila S3 Cells;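 on cell number change: cells counted by Cell Tracker Red CMTPX staining in the red channel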
Details: BODIPY lipid droplet fluorescence, 18-24 h; for cell number change: measured here: cell count max response, cells fed with added oleic acid
In short: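 Drosophila S3 cells loaded with oleic acid (400 uM, as added) and compounds at several concentrations; lipid droplets imaged by 488-nm laser-scanning cytometry, 500–530 nm intensity and object ratio to cell channel. Percent activity normalized to 20 uM Triacsin C.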

[1] = measured here: cell number channel AC50, cells fed with added oleic acid
[2] = measured here: lipid fluorescence (Fed channel) AC50, cells fed with added oleic acid

SMILES | AC50 [1] | AC50 [2] | cell number change [%]
O=C(NCc1ccccn1)c1cccc(S(=O)(=O)Nc2ccc(F)cc2)c1 | 4.11 µM [rising, single point] | – | –
CCOc1ccc(/C=C/C2=CC(C)(C)NC(=S)N2)cc1 | – | 32.6 µM [falling, single point] | –
COc1ccc(C2CC(c3ccccc3)Nc3ncnn32)cc1 (stereo unspecified) | – | – | 7.57
Cn1cc([N+](=O)[O-])c(C(=O)Nc2nc(-c3ccc(Cl)cc3)cs2)n1 | 0.206 µM [rising, full curve, poor fit] | – | –
COc1ccccc1-c1csc(NC(=O)c2cc(-c3cccs3)nc3ccccc23)n1 | – | – | 1.34
O=C(NNC(=O)c1ccccc1Cl)c1ccc(-n2cncn2)c([N+](=O)[O-])c1 | – | – | 8.88
COc1ccc(CCC(=O)N2CCN(c3ccc([N+](=O)[O-])cc3)CC2)cc1OC | 13 µM [rising, partial curve, poor fit] | – | 47.5
CCOC(=O)c1ccccc1NC(=O)COC(=O)c1ccccc1C(=O)N(C)c1ccccc1 | 2.59 µM [rising, full curve] | 0.366 µM [rising, full curve] | 42.9
Cc1ccc(S(=O)(=O)NNC(=O)C2CCCCC2)cc1 | – | 0.82 µM [falling, full curve] | –
COc1ccc(-c2noc(=O)n2Cc2ccccc2F)cc1 | – | 2.06 µM [rising, partial curve] | 2.46
Cc1ccc2cc(CN(c3ccccc3C)S(=O)(=O)c3ccccc3)c(=O)[nH]c2c1 | – | 0.731 µM [falling, single point] | -5.81
Cc1ccc(C(=O)Nc2nnc(S(=O)(=O)N3CCOCC3)s2)cc1 | – | 23.1 µM [rising, single point] | 4.32
O=C(Nc1ccc(S(=O)(=O)Nc2nccs2)cc1)c1ccc(S(=O)(=O)N2CCOCC2)cc1 | 0.082 µM [rising, full curve, poor fit] | – | -19.8
Cc1cc(C)c(C)c(S(=O)(=O)Nc2ccc(O)cc2)c1C | – | 6.51 µM [falling, single point] | –
CCc1c(C#N)c(SCCC(=O)Nc2ccc(OC)cc2)nc2c1C(=O)CC(C)(C)C2 | – | 0.58 µM [rising, single point] | -6.35
Cc1cc(C(=O)N2CCCC(N3CCN(c4ccccc4C)CC3)C2)n(C)n1 (stereo unspecified) | – | 0.0058 µM [rising, full curve, poor fit] | 8.67
CCCCC(=O)NC1(C(F)(F)F)C(=O)N(Cc2ccco2)C(C)=C1C(=O)OC (stereo unspecified) | – | 29.1 µM [rising, single point] | 20.1
Cc1cccc(OCC(=O)NCCNC(=O)c2ccco2)c1 | – | 25.9 µM [rising, single point] | 19.2
CSCCNC(=O)c1ccc(OC2CCN(S(=O)(=O)N(C)C)CC2)cc1 | – | – | 10.6
Cc1cc(=O)[nH]c2c(C)c(N)ccc12 | 5.17 µM [rising, partial curve] | 6.51 µM [rising, partial curve, poor fit] | 32.1
COc1cccc(C(=S)N2CCCC2)c1OC | – | 6.51 µM [falling, single point] | -6.3

SMILES | AC50 [1] | AC50 [2] | cell number change [%]
Cc1nnc(NC(=O)c2oc3ccccc3c2C)s1 | 2.59 µM [rising, partial curve, poor fit] | – | –
O=C(/C=C\Nc1ccc2c(c1)OCO2)c1ccc(Cl)s1 | 29.1 µM [rising, single point] | – | 66.2
COc1cccc(NC(=O)Cn2cc(C=O)c3ccccc32)c1 | – | 18.4 µM [falling, single point] | -17.9
c1ccc(-c2cn3c(n2)CCc2ccc4cccnc4c2-3)cc1 | – | 2.59 µM [rising, single point] | 24.6
O=C(CSc1ccc(Cl)cc1)NCC1CCCO1 (stereo unspecified) | 0.651 µM [falling, full curve, poor fit] | – | -17.1
COc1ccc(-c2noc(C(C)NS(=O)(=O)c3ccc(NC(C)=O)cc3)n2)cc1 (stereo unspecified) | – | – | 20.6
COc1cc(C)ccc1OCCOc1c(Cl)cc(Cl)cc1Cl | – | 4.61 µM [falling, single point] | -4.23
Cc1cccc(-c2oc3ccc(-c4ccc5c(c4)OCO5)cc3c2/C=C/c2ccc(N)cc2)c1 | – | 6.51 µM [rising, single point] | -10
CCOC(=O)c1cnn2c(C(F)(F)F)cc(-c3ccco3)nc12 | – | – | -18.8
CCCCNc1nc(=S)[nH]c2cc(OC)c(OC)cc12 | 29.1 µM [rising, single point] | – | 93.9
O=[N+]([O-])c1ccc(O)c(/C=N/Nc2ncnc3c2cnn3-c2ccccc2)c1 | – | 4.61 µM [falling, full curve, poor fit] | -28.8
COc1cc(OC)cc(C(=O)NC(C(=O)NCc2ccccn2)C(C)C)c1 (stereo unspecified) | – | 20.6 µM [rising, single point] | -1.3
CCCCn1c(N)c(N(CCOC)C(=O)c2cc(-c3ccc(F)cc3)nc3ccccc23)c(=O)[nH]c1=O | – | – | 5.97
C=CCN=c1scc(-c2ccco2)n1/N=C/c1ccc(O)c(O)c1O | 0.0517 µM [falling, full curve] | 0.651 µM [falling, full curve] | -31.4
O=C(CCNS(=O)(=O)c1cccc2nonc12)N1CCN(c2cccc(Cl)c2)CC1 | 13 µM [rising, partial curve] | – | 69.4
Cc1ccc(NC(=O)NCCc2ccc(S(N)(=O)=O)cc2)cc1 | – | 13 µM [rising, partial curve, poor fit] | 1.06
O=C(Nc1cccc(C(=O)Nc2ccc(Br)cc2)c1)c1ccccc1 | – | 11.6 µM [falling, single point] | 40.4
CC1CCCC(=C\c2ccccc2)/C1=N/O (stereo unspecified) | 3.66 µM [rising, single point] | – | 15
CCOC(=O)N1CCN(C(=O)c2cc3cc(F)ccc3[nH]2)CC1 | – | 4.11 µM [rising, full curve, poor fit] | 10.4
CCN(CC(=O)Nc1c(F)cccc1F)C(=O)CCc1ccc(OC)cc1 | – | 2.91 µM [rising, single point] | –
CCN(CC)S(=O)(=O)c1ccc(Cl)c(C(=O)Nc2cc(C)nn2-c2ccccc2)c1 | – | 6.51 µM [falling, single point] | 11.1

Ordered by molecular weight (high to low): part of the list above.
SMILES | AC50 [1] | AC50 [2] | cell number change [%]
CCN(CC)S(=O)(=O)c1ccc(Cl)c(C(=O)Nc2cc(C)nn2-c2ccccc2)c1 | – | 6.51 µM [falling, single point] | 11.1
Cn1cc([N+](=O)[O-])c(C(=O)Nc2nc(-c3ccc(Cl)cc3)cs2)n1 | 0.206 µM [rising, full curve, poor fit] | – | –
C=CCN=c1scc(-c2ccco2)n1/N=C/c1ccc(O)c(O)c1O | 0.0517 µM [falling, full curve] | 0.651 µM [falling, full curve] | -31.4
COc1ccc(-c2noc(=O)n2Cc2ccccc2F)cc1 | – | 2.06 µM [rising, partial curve] | 2.46

(cont.)

SMILES | AC50 [1] | AC50 [2] | cell number change [%]
CN(C(=O)CCNC(=O)Cn1ccc2ccccc2c1=O)c1ccc(Br)cc1 | – | 29.1 µM [rising, single point] | 16.7
CC1CC(C)CN(CCCNC(=O)c2csc3c2CCCC3)C1 (stereo unspecified) | – | – | 21.2
COc1ccc(/C=C(\C#N)C(=O)OCC(=O)Nc2ccc(-c3nc4ccc(C)cc4s3)cc2)cc1 | – | – | 7.32
COc1ccc(S(=O)(=O)N2CCN(C3CCN(Cc4ccccc4)CC3)CC2)cc1 | 3.26 µM [falling, full curve, poor fit] | 10.3 µM [rising, partial curve, poor fit] | -24.9
O=C(COC(=O)c1ccc(S(=O)(=O)N2CCCC2)cc1)Nc1cccnc1Cl | – | – | -0.311
O=S(=O)(NCCC1=CCCCC1)c1ccccc1Cl | – | 13 µM [falling, partial curve, poor fit] | -29.9
Cc1ccc(C(=O)Nc2nc(-c3cccnc3)cs2)o1 | – | – | -10.7
c1ccc(N/N=C(\Cc2nc3ccccc3[nH]2)c2ccccc2)cc1 | – | 2.06 µM [rising, partial curve, poor fit] | -9.17
Clc1ccc(OCc2nn3c(-c4ccco4)nnc3s2)c(Cl)c1 | 29.1 µM [falling, single point] | 3.66 µM [rising, single point] | -42.9
CCCc1cc(=O)oc2cc(C)cc(OC(C)C(=O)NCc3cccnc3)c12 (stereo unspecified) | – | – | 19
O=C(CN1CCN(c2ccccn2)CC1)Nc1ccc([N+](=O)[O-])cc1C(=O)Nc1ccccc1F | 16.4 µM [falling, partial curve] | 20.6 µM [falling, partial curve] | -50.4
COc1ccc(S(=O)(=O)NCc2cccnc2)cc1Br | 10.3 µM [falling, partial curve, poor fit] | 29.1 µM [falling, single point] | -34.1
COC(C[C@H]1O[C@@H]1[C@H](O)COCc1ccccc1)OC | 0.82 µM [falling, partial curve] | 6.51 µM [rising, single point] | -27.6
COc1ccc(-c2sc3cc4c(cc3c2C#CC2(N)CCCCC2)OCO4)cc1 | 23.1 µM [falling, single point] | 11.6 µM [falling, single point] | -89
COc1ccccc1N1CCN(S(=O)(=O)CCNC(=O)C2CCCCC2)CC1 | – | 0.092 µM [falling, full curve, poor fit] | –
Nn1cnnc1SCC(=O)Nc1ccc2c(c1)OCO2 | – | 20.6 µM [rising, single point] | –
COc1cc([N+](=O)[O-])cc(/C=N/NC(=O)C(C)Nc2cccc3ccccc23)c1O (stereo unspecified) | – | 18.4 µM [rising, single point] | 0.677
C#CCOCCOCCOCCNc1nc(N2CCN(C(=O)Cn3cc(CCCCN)nn3)CC2)nc(N2CCN(C(=O)[C@H](CCCCN)n3cc(CCC(=O)O)nn3)CC2)n1 | – | 0.146 µM [falling, full curve, poor fit] | -7.98
CCCCN(C(=O)c1ccc(NC(=O)C(C)C)cc1)c1ccccc1 | – | – | -16.2
Cc1nc(N2CCOCC2)c2oc3ccccc3c2n1 | – | 20.6 µM [falling, single point] | -13.1
